From publication PMC9482633
Results are given in words; binding and its absence hold for the method and conditions named. Binding seen in cells or lysates may run through a third protein. Some binding calls cover weakened binding; strength is not graded here. For some assays here: Sequences can lack the tags named with a protein.

By UniProt entry, the sequences of proteins in these tests, tags left out.
UniProt Q16877: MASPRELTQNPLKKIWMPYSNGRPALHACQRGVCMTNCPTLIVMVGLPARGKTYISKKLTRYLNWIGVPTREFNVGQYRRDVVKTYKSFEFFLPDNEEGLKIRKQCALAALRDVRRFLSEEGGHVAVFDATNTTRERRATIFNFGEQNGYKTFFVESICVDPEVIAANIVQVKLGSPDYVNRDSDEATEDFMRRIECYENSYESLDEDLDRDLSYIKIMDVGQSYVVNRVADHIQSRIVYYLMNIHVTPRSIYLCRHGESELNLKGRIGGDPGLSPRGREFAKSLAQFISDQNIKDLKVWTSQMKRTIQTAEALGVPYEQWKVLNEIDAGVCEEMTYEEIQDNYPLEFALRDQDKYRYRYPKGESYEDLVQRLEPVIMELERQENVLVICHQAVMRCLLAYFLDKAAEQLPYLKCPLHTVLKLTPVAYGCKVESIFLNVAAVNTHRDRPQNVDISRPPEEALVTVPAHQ
UniProt Q16665: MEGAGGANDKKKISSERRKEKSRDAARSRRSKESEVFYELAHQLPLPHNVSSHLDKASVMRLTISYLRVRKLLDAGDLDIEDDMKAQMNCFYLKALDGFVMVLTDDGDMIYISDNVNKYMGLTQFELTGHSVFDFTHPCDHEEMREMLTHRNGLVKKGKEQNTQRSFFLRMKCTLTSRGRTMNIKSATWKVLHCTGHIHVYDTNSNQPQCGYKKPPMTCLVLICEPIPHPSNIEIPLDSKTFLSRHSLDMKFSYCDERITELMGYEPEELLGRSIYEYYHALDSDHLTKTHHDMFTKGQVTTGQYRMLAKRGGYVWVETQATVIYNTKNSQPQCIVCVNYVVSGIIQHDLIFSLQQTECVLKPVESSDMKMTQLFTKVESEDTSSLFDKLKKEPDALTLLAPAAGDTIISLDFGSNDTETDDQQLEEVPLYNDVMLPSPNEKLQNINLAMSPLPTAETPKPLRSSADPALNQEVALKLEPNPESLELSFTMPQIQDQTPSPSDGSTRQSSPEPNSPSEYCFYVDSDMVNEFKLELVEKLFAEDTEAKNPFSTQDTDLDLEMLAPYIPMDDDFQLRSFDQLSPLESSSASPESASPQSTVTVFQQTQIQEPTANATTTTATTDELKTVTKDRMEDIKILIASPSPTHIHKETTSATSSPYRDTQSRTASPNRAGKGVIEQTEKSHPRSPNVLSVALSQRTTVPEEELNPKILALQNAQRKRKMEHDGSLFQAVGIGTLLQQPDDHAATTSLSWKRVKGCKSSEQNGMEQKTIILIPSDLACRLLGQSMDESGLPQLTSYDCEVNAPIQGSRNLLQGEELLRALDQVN

What was measured:
[1] = biological target: T1, SmBiT-tagged FBXO28 (N-term) (UniProt Q9NVF7); test: split reporter; split NanoLuc luciferase in HEK293T cells, competition: increasing amounts of untagged PFKFB4 pLVX plasmid, empty pLVX as control; percent inhibition
T1 sequence: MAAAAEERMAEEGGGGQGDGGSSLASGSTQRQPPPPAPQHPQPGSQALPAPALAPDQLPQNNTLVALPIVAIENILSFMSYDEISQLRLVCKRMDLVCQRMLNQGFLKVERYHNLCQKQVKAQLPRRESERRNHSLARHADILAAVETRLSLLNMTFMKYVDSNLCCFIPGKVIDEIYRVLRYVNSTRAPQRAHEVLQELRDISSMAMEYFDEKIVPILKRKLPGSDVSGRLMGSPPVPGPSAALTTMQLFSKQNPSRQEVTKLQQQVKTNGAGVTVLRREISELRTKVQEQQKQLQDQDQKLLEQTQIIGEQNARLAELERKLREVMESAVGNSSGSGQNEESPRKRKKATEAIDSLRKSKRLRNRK

[2] = biological target: T2, FBXO28-Halo (UniProt Q9NVF7); test: pull-down; FBXO28-Halo and HIF-1α overexpressed in HEK293T cells; pulldown on Halo resin, elution by TEV cleavage; immunoblot with FBXO28 and HIF-1α antibodies
T2 sequence: T1 sequence

| Substance | binding [1] | binding [2] |
| --- | --- | --- |
| untagged PFKFB4 (pLVX plasmid) (from UniProt Q16877 1-469) (enzyme) | binds |  |
| hypoxia inducible factor 1-alpha (HIF-1α) (from UniProt Q16665 1-826) |  | binds |
